This test concerns the target T1, 3×Flag-Nephrin (human) (human) (UniProt O60500).
T1 sequence: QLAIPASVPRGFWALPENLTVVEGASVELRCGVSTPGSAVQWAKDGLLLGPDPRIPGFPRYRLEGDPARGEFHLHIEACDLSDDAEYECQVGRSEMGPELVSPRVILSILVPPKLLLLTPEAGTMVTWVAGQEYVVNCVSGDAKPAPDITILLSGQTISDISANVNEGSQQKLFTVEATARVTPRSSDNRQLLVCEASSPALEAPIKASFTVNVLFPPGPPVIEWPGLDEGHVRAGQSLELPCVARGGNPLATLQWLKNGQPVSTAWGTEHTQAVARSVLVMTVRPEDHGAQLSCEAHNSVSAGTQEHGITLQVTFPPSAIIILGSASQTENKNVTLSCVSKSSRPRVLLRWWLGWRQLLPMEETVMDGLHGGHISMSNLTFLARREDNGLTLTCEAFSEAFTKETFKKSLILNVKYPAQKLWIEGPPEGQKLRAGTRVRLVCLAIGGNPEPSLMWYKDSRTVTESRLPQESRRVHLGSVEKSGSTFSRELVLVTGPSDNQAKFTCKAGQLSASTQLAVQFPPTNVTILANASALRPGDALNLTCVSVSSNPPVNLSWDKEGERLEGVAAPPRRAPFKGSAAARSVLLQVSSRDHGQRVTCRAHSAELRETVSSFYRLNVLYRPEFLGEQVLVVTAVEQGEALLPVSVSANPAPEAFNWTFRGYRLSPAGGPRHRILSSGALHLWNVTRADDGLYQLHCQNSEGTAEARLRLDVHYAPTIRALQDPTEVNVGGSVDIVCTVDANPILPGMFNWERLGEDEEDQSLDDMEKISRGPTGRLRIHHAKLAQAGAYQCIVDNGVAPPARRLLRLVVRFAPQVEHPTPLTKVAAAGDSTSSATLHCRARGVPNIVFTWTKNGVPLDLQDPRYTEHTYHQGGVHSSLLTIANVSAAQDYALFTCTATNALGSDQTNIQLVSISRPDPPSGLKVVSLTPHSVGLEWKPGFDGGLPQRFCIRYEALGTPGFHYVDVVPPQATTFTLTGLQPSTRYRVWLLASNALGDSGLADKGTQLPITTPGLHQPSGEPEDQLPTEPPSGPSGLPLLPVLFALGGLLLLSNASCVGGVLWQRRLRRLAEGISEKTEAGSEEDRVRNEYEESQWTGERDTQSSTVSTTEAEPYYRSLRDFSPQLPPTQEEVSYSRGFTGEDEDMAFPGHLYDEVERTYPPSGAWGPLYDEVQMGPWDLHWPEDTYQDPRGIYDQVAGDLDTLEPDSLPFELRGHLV
Nature of the test: co-IP; human podocytes expressing 3×Flag-hNephrin and wild type Pak1, treated with 50A9 anti-Nephrin mab followed by anti-mouse IgG (mouse IgG as control), lysed in RIPA buffer, immunoprecipitated with Flag antibody or pre-immune sera.

Sequences of proteins named here, by UniProt entry; tags and fusion partners are left off.
UniProt Q13153: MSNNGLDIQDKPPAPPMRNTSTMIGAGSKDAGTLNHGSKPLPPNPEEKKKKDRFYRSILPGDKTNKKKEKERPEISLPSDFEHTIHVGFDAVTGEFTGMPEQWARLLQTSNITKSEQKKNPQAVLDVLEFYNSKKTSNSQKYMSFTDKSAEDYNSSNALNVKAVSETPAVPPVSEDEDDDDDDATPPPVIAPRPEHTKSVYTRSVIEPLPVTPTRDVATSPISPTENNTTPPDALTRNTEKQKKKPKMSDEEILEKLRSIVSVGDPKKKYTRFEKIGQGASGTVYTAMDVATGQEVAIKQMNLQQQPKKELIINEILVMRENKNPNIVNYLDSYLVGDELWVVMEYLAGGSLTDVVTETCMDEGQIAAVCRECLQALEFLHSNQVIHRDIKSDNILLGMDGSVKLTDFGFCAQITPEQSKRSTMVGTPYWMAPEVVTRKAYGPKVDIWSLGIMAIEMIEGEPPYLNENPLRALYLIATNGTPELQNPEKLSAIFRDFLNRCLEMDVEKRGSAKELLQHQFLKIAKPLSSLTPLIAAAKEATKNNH

Results are given in words; binding and its absence hold for the method and conditions named. Binding seen in cells or lysates may run through a third protein. Some entries that bind do so weakly or less than the wild type. Tags and fused reporters may be left off the sequences shown.

Turning to “Pak1, wild type (from UniProt Q13153 1-545) (enzyme)”, the binding entry is on record as “binds”.

The values above are taken from article PMC3237483.
